Reference: PubChem BioAssay AID1439 (NMMLSC, 2008)
The campaign covered roughly 220,000 compounds. About 770 (0.35%) were called active. Inconclusive results, whose numbers are uncertain, are shown with a selection of clear calls. Rule as the data show it: active = binding response below about 49% or above about 150%; inconclusive = no clear call, values can overlap the other calls; inactive = in between.

By UniProt entry, the sequences of proteins in these tests, tags left out.
UniProt P09471, whole entry, looked up: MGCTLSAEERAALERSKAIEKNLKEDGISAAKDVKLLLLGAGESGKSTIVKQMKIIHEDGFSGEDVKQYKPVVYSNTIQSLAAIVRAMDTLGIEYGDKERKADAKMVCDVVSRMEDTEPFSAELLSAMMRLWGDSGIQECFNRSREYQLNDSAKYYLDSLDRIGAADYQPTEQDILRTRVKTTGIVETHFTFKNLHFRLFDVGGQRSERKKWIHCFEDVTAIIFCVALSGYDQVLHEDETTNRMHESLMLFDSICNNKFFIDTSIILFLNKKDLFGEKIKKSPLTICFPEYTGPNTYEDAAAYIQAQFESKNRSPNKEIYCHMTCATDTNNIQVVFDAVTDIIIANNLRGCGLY

Molecular target: Guanine nucleotide-binding protein G(o) subunit alpha (Homo sapiens) (UniProt P09471)
Test: RGS7-Galphao binding modulators, primary screen, biochemical, multiplexed bead flow cytometry (AID 1439);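 also: fluorescent Galphao held in activated GDP-AlF4 state binding bead-coupled RGS7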
Details: at 10 µM, actives lie on both sides

Compound	binding response (% of control)
CC(=O)c1ccc(NC(=S)N(Cc2ccccc2)C(C)C2CC2)cc1 (stereo not drawn)	inconclusive: 108%
Cc1cc(C)n(-c2ncccc2[N+](=O)[O-])n1	inconclusive: 100%
CC1=CC(C)(C)Nc2ccccc21	inactive: 73.4%
CCCCNC(=O)c1cc(C)no1	inactive: 98%
Cc1onc(-c2ccccc2)c1C(=O)NC(=S)NNC(=O)c1ccco1	inconclusive: 135%
C[n+]1cc[nH]c1SCC(=O)c1ccc(Cl)cc1	inconclusive: 130%
Cc1cc(NC(=O)NC(C)(C(F)(F)F)C(F)(F)F)no1	inconclusive: 97.1%
COc1c(C(CC(C)C)OC(C)=O)ccc2c1C(=O)OCc1cc(C)cc(O)c1O2 (stereo not drawn)	inconclusive: 114%
CCOc1ccc(NC(=O)CC2C(=O)N(CC)C(=S)N2NC(=O)c2ccncc2)cc1 (stereo not drawn)	inconclusive: 124%
COc1cc([N+](=O)[O-])cc(/C=N/NC(=O)Cn2nc(C)cc2C)c1O	inconclusive: 88.4%
O=C(/C=C\c1cccs1)c1c(O)ccc2ccc(=O)oc12	inactive: 99.4%
CC(NCCC1(Cc2ccccc2Cl)CCOC(C)(C)C1)c1cccs1 (stereo not drawn)	inconclusive: 95.6%
N#C/C(=C\c1cc([N+](=O)[O-])ccc1Cl)C(N)=O	inconclusive: 98.9%
Nc1ccc(N2CCN(CCCCN3C(=O)C4CCCN4C3=O)CC2)cc1 (stereo not drawn)	inactive: 99.8%
N#Cc1c(C(F)(F)F)cc(C2CC2)[nH]c1=O	active: 184% [activator]
Cc1ccc(S(=O)(=O)N/N=C/c2ccc3nccnc3c2)cc1	inconclusive: 106%
CC(=O)n1cc(N(C(=O)CCl)c2ccccc2)c2ccccc21	inconclusive: 94.8%
Cc1ccc2c(c1)C(=O)CCCCC(=O)N2	inconclusive: 79.4%
CCCC(C)C(=O)Nc1ccc(S(N)(=O)=O)cc1 (stereo not drawn)	inconclusive: 66.8%
C/C(=N/NC(=O)c1ccc(C)nc1)c1ccc2c(c1)CCCC2	inactive: 101%
CNC(=S)N/N=C(\C)c1ccc(Cl)c(Cl)c1	inconclusive: 92.1%
C/C(=N\NC(=O)c1cccnc1)c1ccc(-c2ccccc2)cc1	inconclusive: -11.6%
CCOc1ccc(NS(=O)(=O)c2ccc(NC(=O)c3cccnc3)c(OC)c2)cc1	inconclusive: 110%
Oc1ccccc1C(Nc1nccs1)c1ccc2cccnc2c1O (stereo not drawn)	inconclusive: 208%

Compound	binding response (% of control)
CCOC(=O)Cc1csc(NC(=O)/C=C/c2ccc(Cl)cc2)n1	inconclusive: 112%
CCCOc1ccc(OCCOCCN2CCc3ccccc3C2)cc1	inactive: 99.1%
Cc1cccc(CSCC(=O)NCc2ccc(S(N)(=O)=O)cc2)c1	inconclusive: 116%
CC(C)c1ccc2c(c1)C(c1ccc(N3CCOCC3)cc1)=NNC(c1cccs1)=N2	inactive: 100%
CC(Sc1n[nH]c(N)n1)C(=O)Nc1cccc(S(=O)(=O)N2CCOCC2)c1 (stereo not drawn)	inconclusive: 109%
CCN(C(=O)c1cc2cccc(OC)c2oc1=O)C1CCCCC1	active: 188% [activator]
CC1CCC2(CC1)NC(CO)(CO)CO2 (stereo not drawn)	inactive: 96.9%
CCn1c(COc2ccc(=O)n(-c3ccccc3)n2)n[nH]c1=S	inconclusive: 95.8%
COCCN1Cc2cccc(C(=O)Nc3ccc(S(=O)(=O)N4CCCCCC4)cc3)c2C1=O	inconclusive: 166%
COc1ccc(NC(=O)c2nc(C)c(C3(C)CC(c4cccnc4)=NO3)s2)cc1 (stereo not drawn)	inconclusive: 92.9%
O=C(O)/C=C/c1ccc(S(=O)(=O)N2CCCCCC2)cc1	inconclusive: 104%
CC(C)C(NC(=O)c1ccccc1NC(=O)c1ccco1)C(=O)NNC(=O)c1ccncc1 (stereo not drawn)	inconclusive: 111%
O=C(CSc1nc(O)cc(=O)[nH]1)N1c2ccccc2CCc2ccccc21	inconclusive: 107%
O=C(Nc1c(S(=O)(=O)c2ccc(Cl)cc2)csc1Br)c1ccccc1Cl	inconclusive: 21.7%
Cc1ccc(C2(COC(=O)C(C)C)CO2)c(OC(=O)C(C)C)c1 (stereo not drawn)	inconclusive: 135%
CCN(CC)CCN(C(=O)c1ccc(C(C)=O)cc1)c1nc2ccc(Cl)cc2s1	inconclusive: 110%
CC(/C=C/c1ccc2c(c1)OCO2)=N/NC(=O)c1ccncc1	inconclusive: 110%
O=C(Nc1ccc(F)cc1)c1ccc(-n2cncn2)c([N+](=O)[O-])c1	inconclusive: 122%
C/C=C/CSc1nc2c(c(=O)[nH]c(=O)n2C)n1Cc1ccc(C)cc1	inactive: 107%
O=C(CSc1nnc(SCc2ccccc2)s1)N/N=C/c1c(Cl)cccc1Cl	inactive: 105%
CC(C)NCC(O)COc1cccc2ccccc12 (stereo not drawn)	inconclusive: 115%
CC(C)(C)NC(=O)CSc1nc2ccccc2c(=O)[nH]1	inconclusive: 121%
CC(=O)Nc1sc(N/N=C/c2ccccc2)nc1-c1ccc(C)cc1	inconclusive: 90.5%
Cc1cccc(-n2cnc3c(sc4nc(N5CCOCC5)c5c(c43)CCCC5)c2=O)c1	inconclusive: 78.5%

Sorted by molar mass (descending): five of the compounds above.
Compound	binding response (% of control)
COCCN1Cc2cccc(C(=O)Nc3ccc(S(=O)(=O)N4CCCCCC4)cc3)c2C1=O	inconclusive: 166%
CCN(CC)CCN(C(=O)c1ccc(C(C)=O)cc1)c1nc2ccc(Cl)cc2s1	inconclusive: 110%
CC(Sc1n[nH]c(N)n1)C(=O)Nc1cccc(S(=O)(=O)N2CCOCC2)c1 (stereo not drawn)	inconclusive: 109%
O=C(Nc1ccc(F)cc1)c1ccc(-n2cncn2)c([N+](=O)[O-])c1	inconclusive: 122%
Cc1ccc(C2(COC(=O)C(C)C)CO2)c(OC(=O)C(C)C)c1 (stereo not drawn)	inconclusive: 135%

Remaining list, next part:

Compound	binding response (% of control)
CCN1CC(CN(C)Cc2nc(-c3ccc(C(F)(F)F)cc3)oc2C)CC1=O (stereo not drawn)	inactive: 100%
CC(C)CC(C)c1cc(N)nc2nc3ccccc3n12 (stereo not drawn)	inactive: 101%
CC(C)[C@H](NC(=O)c1ccco1)C(=O)OCC(=O)N(C)c1ccccc1	inconclusive: 16.3%
CCS(=O)(=O)c1ccc2oc(Nc3ccccc3C)nc2c1	inactive: 88.3%
COc1ccc(-c2noc(C3CCCN(C(=O)c4ccc(C)cc4)C3)n2)cc1 (stereo not drawn)	inconclusive: 82.5%
CSc1ccc(C2(O)Cc3cccc[n+]3C2c2ccccc2)cc1 (stereo not drawn)	inconclusive: 87.4%
CCOc1ccc(C(=O)OC2CCN(C)CC2)cc1	inactive: 101%
COc1ccc(CNS(=O)(=O)NCc2ccc(C)cc2)cc1OC	inactive: 97.1%
NC(=NC(=O)c1ccc(OCC(F)(F)F)nc1)c1ccc(Cl)cc1	inconclusive: 112%
CCOC(=O)c1ccc(S(=O)(=O)Nc2nc3cc(S(=O)(=O)NC4=NCCCCC4)ccc3s2)cc1	inconclusive: 90.5%
O=C(c1cc(-c2cccs2)nc2ccccc12)N1CCN(c2ccccc2)CC1	inconclusive: 104%
O=C(c1cccc(F)c1)N1CCCC(C(=O)N2CCN(c3ccccc3)CC2)C1 (stereo not drawn)	inconclusive: 146%
CC(=O)Nc1nn(C)c2nc(C)cc(C)c12	inconclusive: 119%
COc1ccc2c(c1OC)C(=O)OC2Nc1ccc(S(=O)(=O)N=C(N)N)cc1 (stereo not drawn)	inconclusive: 108%
COC(=O)c1scc(C)c1NC(=O)CC1NCCNC1=O (stereo not drawn)	inconclusive: 77.3%
CCOC(=O)CN1N=C(/C=C/c2ccc(C(C)C)cc2)CCC1=O	inactive: 100%
Clc1ccc(N=C2SCCS2)cc1	inconclusive: 110%
CNC(=S)NNC(=O)c1sc(-c2cc(C)on2)nc1C	inconclusive: 91%
Fc1ccc(N/N=C/c2ccncc2)c(F)c1	inactive: 106%
CCOC(=O)C(c1ccccc1)C(Nc1ccc(F)cc1)c1ccccn1 (stereo not drawn)	inconclusive: 30.8%
O=C(COC(=O)c1ccccc1)NCCC1=CCCCC1	inactive: 103%
CC(c1ccon1)N(C)C(=O)CCc1nnc(C2(c3ccc(Cl)cc3)CCC2)o1 (stereo not drawn)	inactive: 107%
CN(C)S(=O)(=O)Nc1ccccc1F	inactive: 109%
CCN1CCN(c2cc(C(C)C)nc3c(-c4ccccc4)c(C)nn23)CC1	inconclusive: 115%

Compound	binding response (% of control)
CC(C)(C)C(=O)Nc1nnc(COc2ccc(Cl)cc2)s1	inconclusive: 58.4%
O=[N+]([O-])c1ccc(CSc2ncnc3ccccc23)cc1	inconclusive: 108%
COc1cccc(NC(=O)CN(C)CC(=O)NC(C)c2ccccc2)c1 (stereo not drawn)	inconclusive: 122%
CC(C)(C)NC(=O)CSc1nc(N)cc(=O)[nH]1	inconclusive: 63.3%
Cn1c2ccccc2c2nnc(NN)nc21	inconclusive: 1.09%
CS(=O)(=O)c1ccc(C(=O)OCc2nnc(-c3ccc(Cl)cc3)o2)cc1[N+](=O)[O-]	inactive: 100%
CC(C)OP(=O)(OC(C)C)C(O)c1cccc([N+](=O)[O-])c1 (stereo not drawn)	inconclusive: 105%
Cn1c(CCC(=O)OCC(=O)NCC(F)(F)F)nc(=O)c2ccccc21	inconclusive: 90.4%
Nc1cc([N+](=O)[O-])ccc1N1C(=O)CCCC1=O	inconclusive: -143%
COc1ccc(-n2c(=O)c3ccccc3n(Cc3ccc(F)cc3)c2=O)cc1OC	inactive: 139%
O=C1NC2(CCCCC2)C(=O)N1CCN1C(=O)c2ccccc2C1=O	inconclusive: 136%
COc1ccc(S(=O)(=O)N2CCCCC2)cc1NC(=O)CSc1nccn1C	inconclusive: 101%
C=C(C)[C@@H]1CC=C(C(=O)O)CC1	inconclusive: 91.1%
O=C(COC(=O)/C=C/c1ccc(OC(F)F)cc1)NCCN1C(=O)CSC1=O	inconclusive: 114%
CC(C)(C)NC(=S)NNC(=O)[C@H]1C[C@@H]1c1ccccc1	inconclusive: 165%
O=C(Nc1ccc(S(=O)(=O)N2CCOCC2)cc1)c1ccc2c(c1)OCO2	inconclusive: 107%
CCOc1ccccc1CN1CCN(Cc2ccon2)CC1CCO (stereo not drawn)	inconclusive: 105%
C=CCn1cccc(C(=O)Nc2ccc(OC)cc2)c1=O	inconclusive: 95.6%
COCCN1Cc2cccc(C(=O)NCCCN3CCCC3=O)c2C1=O	inconclusive: 110%
Cn1nc(NC(=O)CC(C)(C)CC(=O)O)c2ccccc21	inconclusive: 91.9%
O=C(Nc1ncc(Cl)cc1Cl)c1c(F)cccc1Cl	inconclusive: 90.4%
